The results in this text go back to PMC10810786.

Assay [1] concerns the target recombinant TbEIF4E6 (GST tag removed) (Trypanosoma brucei). The assay is described as follows: crystal structure; complex at 12 mg/mL in 20 mM Tris-HCl, 150 mM NaCl, 2 mM DTT, pH 8.0, preincubated with cap-4; hanging drop at 18 °C; 1.90 Å; both purified.
Assay [2] shares this target. The assay is described as follows: nanoDSF (thermal unfolding); purified protein and purified complex in 20 mM Tris-HCl, 150 mM NaCl, 2 mM DTT, pH 8.0; linear ramp from 20 to 80 °C; with and without cap-4; both purified.

Results are given in words; binding and its absence hold for the method and conditions named. Binding calls can cover weak binding; strength is not graded here.

For SSYPEDCVYEIAEFTRLQNTKCLPPKGILQFATDLWKE [TbEIF4G5_79-116 peptide], the binding result in assay [1] and in assay [2] was “binds” in each case.
